These results are taken from US12650433B2, “Detection of symmetrical dimethylarginine” (IDEXX LABORATORIES, INC., priority 2017, dated 2026).

The nature of this series: Catalyst DX SDMA assay on matched feline serum and plasma samples, serum/plasma bias. As to conditions: range over samples. The protocol:
The Catalyst DX® assays were performed according the following general procedure and according the instruction of the manufacturer (IDEXX Laboratories, Inc.) The sample and the anti-SDMA-HRP conjugate were incubated for two minutes at room temperature. Two 11 μL aliquots of the mixture were applied to the CATALYST DXR solid phase prepared as described in Example 12. The solid phase was washed three times with 9 μL of wash buffer. Two 11.5 μL aliquots of TMB substrate were added. The OD of the slide was then read for two minutes at 0.5 second intervals at 645 nM.
The Catalyst DX® SDMA assay was carried out on matched serum and plasma samples, with either covalently linked amine-MMA particles or passively coated G6PDH-MMA particles. The experiments were performed in duplicate. Sample bias was calculated as follows: (serum SDMA (μg/dL)-plasma SDMA (μg/dL)/((serum SDMA (μg/dL)+plasma SDMA (μg/dL))/2), which reflects the difference between the serum and plasma values) divided by the mean of the serum and plasma values.

Turning to `CCNC(=O)CSCCNC(=O)C(N)CCCNC(=N)NC` (stereo not shown) [G6PDH-MMA], the serum/plasma bias was −3% to 6%.
